Laboratory results taken from patent US20250297018A1, “IL-18BP ANTAGONIST ANTIBODIES AND THEIR USE IN MONOTHERAPY AND COMBINATION THERAPY IN THE TREATMENT OF CANCER” (Compugen Ltd., priority 2022, published 2025).
These are yes or no findings as the source states them, for the method shown. Some binding calls cover weakened binding; strength is not graded here. Tags and fused reporters may be left off the sequences shown.

Target: T1, mouse IL18BP-Fc (mouse; human) (UniProt Q9Z0M9)
T1 sequence (looked up): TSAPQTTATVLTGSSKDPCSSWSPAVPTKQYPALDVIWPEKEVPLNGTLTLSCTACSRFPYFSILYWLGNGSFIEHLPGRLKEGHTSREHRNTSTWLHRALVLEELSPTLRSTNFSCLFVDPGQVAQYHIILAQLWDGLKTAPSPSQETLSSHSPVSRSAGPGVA
Assay: Biacore

binding: binds
B1: ADI-71739 Fab fragment (Fab, V domains shown)
VH: QLQLQESGPGLVKPSETLSLTCTVSGGSISSPDYPWGWIRQPPGKGLEWIGSIYYQGATYYNPSLKSRVTISVDTSKNQFSLKLSSVTAADTAVYYCARGPYRQLFDYWGQGTLVTVSS
VL: DIQMTQSPSSVSASVGDRVTITCRASQGISSWLAWYQQKPGKAPKLLIYAASSLQSGVPSRFSGSGSGTDFTLTISSLQPEDFATYYCQQGSVFPYTFGGGTKVEIK
